# ± gives the standard deviation of the averaged measurements. Only a part is listed here, and it is no random draw.
# Sequences of proteins named here, by UniProt entry; tags and fusion partners are left off. A change or cut given only in a name is not applied to a line headed by its entry.
# UniProt O00764: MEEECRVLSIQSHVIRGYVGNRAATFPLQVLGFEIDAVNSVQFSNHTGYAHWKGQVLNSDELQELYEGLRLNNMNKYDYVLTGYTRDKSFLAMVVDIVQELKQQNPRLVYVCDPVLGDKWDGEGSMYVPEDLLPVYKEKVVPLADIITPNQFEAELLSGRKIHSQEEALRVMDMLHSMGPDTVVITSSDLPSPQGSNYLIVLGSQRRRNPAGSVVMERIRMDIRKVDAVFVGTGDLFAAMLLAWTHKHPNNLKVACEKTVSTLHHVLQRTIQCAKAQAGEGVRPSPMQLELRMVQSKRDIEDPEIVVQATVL
# UniProt O14936: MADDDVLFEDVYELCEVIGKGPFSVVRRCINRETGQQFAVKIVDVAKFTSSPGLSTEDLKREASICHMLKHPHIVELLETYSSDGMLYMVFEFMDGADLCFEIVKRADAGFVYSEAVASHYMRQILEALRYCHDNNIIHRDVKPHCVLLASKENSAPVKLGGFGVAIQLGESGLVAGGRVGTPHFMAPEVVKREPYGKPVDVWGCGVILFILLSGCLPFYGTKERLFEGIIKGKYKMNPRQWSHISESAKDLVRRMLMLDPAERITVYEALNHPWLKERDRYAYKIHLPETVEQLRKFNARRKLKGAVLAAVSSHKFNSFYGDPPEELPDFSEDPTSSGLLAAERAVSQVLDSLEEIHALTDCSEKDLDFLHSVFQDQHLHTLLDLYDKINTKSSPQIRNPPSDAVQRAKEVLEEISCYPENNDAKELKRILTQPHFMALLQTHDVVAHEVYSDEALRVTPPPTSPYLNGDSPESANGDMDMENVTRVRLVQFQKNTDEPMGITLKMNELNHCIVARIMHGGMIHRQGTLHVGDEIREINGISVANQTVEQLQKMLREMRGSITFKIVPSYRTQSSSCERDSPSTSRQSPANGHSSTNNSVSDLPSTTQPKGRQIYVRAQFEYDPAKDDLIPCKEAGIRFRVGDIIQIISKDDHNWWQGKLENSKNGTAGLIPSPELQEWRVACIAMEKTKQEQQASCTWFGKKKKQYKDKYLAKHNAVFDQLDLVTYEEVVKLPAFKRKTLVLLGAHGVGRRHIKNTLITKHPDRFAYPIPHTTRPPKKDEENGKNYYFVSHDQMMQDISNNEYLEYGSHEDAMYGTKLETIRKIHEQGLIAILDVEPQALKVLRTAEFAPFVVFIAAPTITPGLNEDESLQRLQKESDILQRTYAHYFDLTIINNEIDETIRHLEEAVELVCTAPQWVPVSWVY
# UniProt O00330, whole entry: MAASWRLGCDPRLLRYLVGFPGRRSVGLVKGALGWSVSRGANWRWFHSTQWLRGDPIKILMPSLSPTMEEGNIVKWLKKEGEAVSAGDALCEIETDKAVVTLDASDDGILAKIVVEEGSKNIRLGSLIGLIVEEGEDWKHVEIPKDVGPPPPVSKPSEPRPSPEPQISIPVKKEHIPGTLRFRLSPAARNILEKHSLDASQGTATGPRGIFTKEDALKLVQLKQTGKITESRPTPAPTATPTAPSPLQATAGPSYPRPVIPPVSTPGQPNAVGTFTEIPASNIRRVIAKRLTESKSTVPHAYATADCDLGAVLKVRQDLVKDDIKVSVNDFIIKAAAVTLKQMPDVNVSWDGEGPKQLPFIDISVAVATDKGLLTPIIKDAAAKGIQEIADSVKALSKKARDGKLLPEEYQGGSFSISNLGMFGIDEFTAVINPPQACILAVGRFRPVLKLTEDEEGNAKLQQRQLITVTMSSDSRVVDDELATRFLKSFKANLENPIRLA
# UniProt O43809, whole entry: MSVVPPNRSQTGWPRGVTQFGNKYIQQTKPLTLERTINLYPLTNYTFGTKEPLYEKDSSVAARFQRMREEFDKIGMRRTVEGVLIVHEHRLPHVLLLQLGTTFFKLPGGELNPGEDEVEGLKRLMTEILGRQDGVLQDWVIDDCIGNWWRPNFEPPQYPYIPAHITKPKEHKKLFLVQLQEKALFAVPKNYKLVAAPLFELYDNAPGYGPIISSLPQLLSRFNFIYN
# UniProt O14802: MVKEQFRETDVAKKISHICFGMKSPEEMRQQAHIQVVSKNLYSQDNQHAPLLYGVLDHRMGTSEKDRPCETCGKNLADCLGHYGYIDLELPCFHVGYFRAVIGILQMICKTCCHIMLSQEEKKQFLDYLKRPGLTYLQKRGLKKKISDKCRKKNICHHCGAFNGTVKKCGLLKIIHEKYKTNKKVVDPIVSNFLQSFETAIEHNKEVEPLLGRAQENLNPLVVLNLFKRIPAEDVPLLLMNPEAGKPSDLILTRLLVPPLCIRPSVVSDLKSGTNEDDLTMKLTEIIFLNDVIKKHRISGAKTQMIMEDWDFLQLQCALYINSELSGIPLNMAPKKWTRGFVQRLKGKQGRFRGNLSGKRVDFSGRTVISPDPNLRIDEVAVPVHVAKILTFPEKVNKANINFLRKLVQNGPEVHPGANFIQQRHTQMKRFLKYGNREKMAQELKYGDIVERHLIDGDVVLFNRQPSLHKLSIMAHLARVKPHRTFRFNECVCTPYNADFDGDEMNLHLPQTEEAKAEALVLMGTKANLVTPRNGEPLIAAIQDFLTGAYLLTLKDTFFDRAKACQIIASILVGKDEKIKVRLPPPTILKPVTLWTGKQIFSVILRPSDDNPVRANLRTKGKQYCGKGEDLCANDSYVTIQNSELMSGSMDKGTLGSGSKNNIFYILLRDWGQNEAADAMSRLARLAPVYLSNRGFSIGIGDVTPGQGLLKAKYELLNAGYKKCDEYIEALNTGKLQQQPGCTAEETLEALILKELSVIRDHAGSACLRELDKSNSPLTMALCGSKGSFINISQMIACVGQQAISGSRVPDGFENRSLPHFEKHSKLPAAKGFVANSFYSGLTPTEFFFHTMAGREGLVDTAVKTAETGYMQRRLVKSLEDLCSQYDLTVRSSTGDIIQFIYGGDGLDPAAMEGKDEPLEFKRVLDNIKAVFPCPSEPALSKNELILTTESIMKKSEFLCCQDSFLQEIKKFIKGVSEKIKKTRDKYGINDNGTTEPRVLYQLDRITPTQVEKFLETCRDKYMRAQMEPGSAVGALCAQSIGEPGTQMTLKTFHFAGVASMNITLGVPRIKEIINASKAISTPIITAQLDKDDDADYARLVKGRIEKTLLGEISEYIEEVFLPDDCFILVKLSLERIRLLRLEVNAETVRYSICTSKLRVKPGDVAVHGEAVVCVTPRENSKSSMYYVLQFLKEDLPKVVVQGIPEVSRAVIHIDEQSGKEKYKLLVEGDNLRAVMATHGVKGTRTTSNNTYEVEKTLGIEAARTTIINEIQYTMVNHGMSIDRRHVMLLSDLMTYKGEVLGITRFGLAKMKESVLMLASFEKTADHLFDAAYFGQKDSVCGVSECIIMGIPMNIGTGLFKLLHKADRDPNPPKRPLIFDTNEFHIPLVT
# UniProt Q14CW9: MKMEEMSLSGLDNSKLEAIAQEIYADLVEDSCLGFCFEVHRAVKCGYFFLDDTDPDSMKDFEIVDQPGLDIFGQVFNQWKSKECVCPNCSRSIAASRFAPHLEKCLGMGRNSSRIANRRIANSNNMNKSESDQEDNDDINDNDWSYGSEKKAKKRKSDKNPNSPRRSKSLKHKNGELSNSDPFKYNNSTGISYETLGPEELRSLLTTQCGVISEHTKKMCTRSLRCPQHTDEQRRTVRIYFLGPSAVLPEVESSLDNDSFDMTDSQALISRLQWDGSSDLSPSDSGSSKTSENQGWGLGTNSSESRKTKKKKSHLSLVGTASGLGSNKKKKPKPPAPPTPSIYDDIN
# UniProt L0R6Q1: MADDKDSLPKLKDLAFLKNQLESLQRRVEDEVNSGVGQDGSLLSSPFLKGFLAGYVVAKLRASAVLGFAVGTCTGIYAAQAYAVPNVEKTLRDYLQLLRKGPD
# UniProt O00422: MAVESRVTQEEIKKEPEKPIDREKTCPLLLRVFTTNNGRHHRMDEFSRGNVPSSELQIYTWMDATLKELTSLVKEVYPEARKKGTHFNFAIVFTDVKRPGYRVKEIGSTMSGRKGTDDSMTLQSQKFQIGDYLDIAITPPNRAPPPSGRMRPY
# UniProt O00534: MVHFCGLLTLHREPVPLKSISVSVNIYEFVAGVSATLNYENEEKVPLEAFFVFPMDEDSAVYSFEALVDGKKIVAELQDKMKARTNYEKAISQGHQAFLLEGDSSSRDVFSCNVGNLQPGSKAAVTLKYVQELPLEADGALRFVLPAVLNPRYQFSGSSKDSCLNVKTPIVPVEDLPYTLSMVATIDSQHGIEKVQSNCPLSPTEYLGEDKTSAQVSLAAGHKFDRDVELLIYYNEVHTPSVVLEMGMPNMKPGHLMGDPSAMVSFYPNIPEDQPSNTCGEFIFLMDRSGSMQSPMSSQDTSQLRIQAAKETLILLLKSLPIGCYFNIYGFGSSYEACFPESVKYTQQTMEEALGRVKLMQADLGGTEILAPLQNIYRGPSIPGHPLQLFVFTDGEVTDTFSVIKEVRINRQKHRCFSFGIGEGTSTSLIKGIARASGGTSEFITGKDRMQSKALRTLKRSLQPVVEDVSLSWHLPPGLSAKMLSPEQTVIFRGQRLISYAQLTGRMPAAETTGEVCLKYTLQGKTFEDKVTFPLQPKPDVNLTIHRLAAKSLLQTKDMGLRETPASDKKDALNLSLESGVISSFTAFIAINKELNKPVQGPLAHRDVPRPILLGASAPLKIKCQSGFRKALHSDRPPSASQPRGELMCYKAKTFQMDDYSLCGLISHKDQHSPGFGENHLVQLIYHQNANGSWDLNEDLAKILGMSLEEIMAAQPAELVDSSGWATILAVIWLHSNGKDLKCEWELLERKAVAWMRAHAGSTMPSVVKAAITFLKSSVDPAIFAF
# UniProt O95707: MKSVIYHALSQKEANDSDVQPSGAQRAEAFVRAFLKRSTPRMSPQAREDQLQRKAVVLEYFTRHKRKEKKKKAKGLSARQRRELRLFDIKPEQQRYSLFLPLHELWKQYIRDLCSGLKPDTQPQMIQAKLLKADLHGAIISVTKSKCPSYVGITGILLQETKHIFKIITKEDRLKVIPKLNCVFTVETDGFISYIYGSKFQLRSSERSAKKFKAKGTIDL
# UniProt Q8IV63: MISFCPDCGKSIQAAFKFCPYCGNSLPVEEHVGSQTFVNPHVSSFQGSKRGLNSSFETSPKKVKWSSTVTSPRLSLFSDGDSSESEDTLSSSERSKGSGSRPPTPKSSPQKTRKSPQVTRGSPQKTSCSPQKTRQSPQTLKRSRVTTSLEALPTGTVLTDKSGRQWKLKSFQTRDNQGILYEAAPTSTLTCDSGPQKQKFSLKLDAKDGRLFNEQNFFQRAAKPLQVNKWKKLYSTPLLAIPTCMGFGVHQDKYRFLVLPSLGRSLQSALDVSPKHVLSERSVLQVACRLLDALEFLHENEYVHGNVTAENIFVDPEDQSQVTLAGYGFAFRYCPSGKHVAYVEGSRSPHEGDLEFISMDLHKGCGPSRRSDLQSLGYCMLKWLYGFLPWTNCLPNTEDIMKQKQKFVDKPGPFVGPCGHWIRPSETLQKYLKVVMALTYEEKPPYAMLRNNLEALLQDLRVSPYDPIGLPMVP
# UniProt Q6UUV9: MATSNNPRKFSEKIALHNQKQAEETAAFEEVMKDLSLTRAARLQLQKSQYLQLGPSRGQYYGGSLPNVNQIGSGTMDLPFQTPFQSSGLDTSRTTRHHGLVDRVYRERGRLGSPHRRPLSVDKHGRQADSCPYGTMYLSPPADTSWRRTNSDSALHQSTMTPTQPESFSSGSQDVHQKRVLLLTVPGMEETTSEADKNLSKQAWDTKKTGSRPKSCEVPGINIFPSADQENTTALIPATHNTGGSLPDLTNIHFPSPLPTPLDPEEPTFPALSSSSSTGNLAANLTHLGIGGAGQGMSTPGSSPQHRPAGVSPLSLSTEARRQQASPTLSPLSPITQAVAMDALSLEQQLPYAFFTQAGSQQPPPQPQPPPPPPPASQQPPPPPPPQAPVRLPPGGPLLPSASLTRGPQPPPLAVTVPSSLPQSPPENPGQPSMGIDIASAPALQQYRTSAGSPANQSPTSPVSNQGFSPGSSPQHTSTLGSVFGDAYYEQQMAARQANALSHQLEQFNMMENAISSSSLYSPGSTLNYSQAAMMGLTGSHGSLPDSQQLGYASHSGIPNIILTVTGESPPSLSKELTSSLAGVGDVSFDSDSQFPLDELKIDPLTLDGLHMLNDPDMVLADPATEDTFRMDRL
# UniProt Q14653: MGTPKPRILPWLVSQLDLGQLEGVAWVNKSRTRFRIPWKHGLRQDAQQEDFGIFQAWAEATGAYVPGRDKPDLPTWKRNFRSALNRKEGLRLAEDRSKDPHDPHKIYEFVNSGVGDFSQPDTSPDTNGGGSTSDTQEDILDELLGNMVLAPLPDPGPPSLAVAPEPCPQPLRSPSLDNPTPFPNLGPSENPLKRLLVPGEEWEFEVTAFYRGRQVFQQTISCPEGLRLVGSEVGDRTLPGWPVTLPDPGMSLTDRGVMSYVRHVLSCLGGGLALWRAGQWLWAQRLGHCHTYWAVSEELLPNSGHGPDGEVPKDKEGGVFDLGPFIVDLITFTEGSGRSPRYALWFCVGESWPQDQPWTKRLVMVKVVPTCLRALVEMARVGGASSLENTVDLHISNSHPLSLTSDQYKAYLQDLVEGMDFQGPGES
# UniProt O43678, whole entry: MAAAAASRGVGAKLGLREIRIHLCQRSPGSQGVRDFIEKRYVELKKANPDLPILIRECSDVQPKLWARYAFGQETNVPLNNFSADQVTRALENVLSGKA
# Compound: Nc1ncnc2c1ncn2[C@@H]1O[C@H](COP(=O)(O)OP(=O)(O)NP(=O)(O)O)[C@@H](O)[C@H]1O [adenylyl imidodiphosphate]
# Test: NP40-soluble protein abundance relative to vehicle (solubility fold change) (ratio); higher = more soluble protein in presence of AMP-PNP
# Outline: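 In three independent experiments, Jurkat crude lysate made by Dounce homogenisation was treated for 10 min at room temperature and then 3 min at 37 °C with eight concentrations ranging from 0.1 to 10 mM. It was then solubilised with 0.8% NP40 plus benzonase for 60 min at 4 °C and ultracentrifuged. The supernatant was TMT-labelled for LC-MS/MS, and each value is the fold change against the detergent-processed vehicle for the same replicate, using vsn-normalised intensities.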
Target,NP40-soluble protein abundance (concentration: 1mM),NP40-soluble protein abundance (concentration: 2mM),NP40-soluble protein abundance (concentration: 4mM),NP40-soluble protein abundance (concentration: 6mM),NP40-soluble protein abundance (concentration: 8mM),NP40-soluble protein abundance (concentration: 10mM)
M0QXA7 and related entries (UniProt O95785),1.02 ± 0.031,1.04 ± 0.029,1.06 ± 0.013,1.04 ± 0.034,1.02 ± 0.023,1.07 ± 0.032
UniProt O15015 and related entries,1.007 ± 0.0041,1.01 ± 0.049,1.03 ± 0.024,1.01 ± 0.037,0.983 ± 0.074,1 ± 0.074
UniProt O43760 and related entries,0.977 ± 0.05,0.976 ± 0.05,0.972 ± 0.053,0.983 ± 0.014,0.979 ± 0.052,0.97 ± 0.035
K7EJH8 and related entries (UniProt O43707),1.03 ± 0.02,1.01 ± 0.03,0.98 ± 0.042,0.965 ± 0.019,0.935 ± 0.035,0.942 ± 0.03
O14925 and related entries (UniProt Q5SRD1+O14925),1.01 ± 0.035,0.997 ± 0.011,0.997 ± 0.025,1 ± 0.052,1.02 ± 0.035,1.02 ± 0.019
UniProt O14732 and related entries,1.01 ± 0.033,0.982 ± 0.053,0.988 ± 0.026,0.989 ± 0.02,0.987 ± 0.041,0.984 ± 0.025
UniProt O14975 and related entries,1.01 ± 0.047,0.976 ± 0.021,1.012 ± 0.0053,0.992 ± 0.021,1.01 ± 0.03,0.993 ± 0.024
SART1 (UniProt O43290),1.07 ± 0.048,1.12 ± 0.054,1.11 ± 0.034,1.22 ± 0.089,1.26 ± 0.067,1.36 ± 0.081
UniProt O00764 and related entries,0.987 ± 0.02,0.929 ± 0.047,0.978 ± 0.029,1.01 ± 0.035,1.03 ± 0.041,1.01 ± 0.028
K7EQ37 and related entries (UniProt Q70J99),0.979 ± 0.012,0.97 ± 0.036,1.01 ± 0.027,1.01 ± 0.036,1.02 ± 0.044,1.03 ± 0.046
UniProt O15260 and related entries,0.991 ± 0.028,0.982 ± 0.022,0.974 ± 0.031,0.966 ± 0.037,0.976 ± 0.011,0.983 ± 0.022
UniProt O00567,1.08 ± 0.026,1.08 ± 0.024,1.16 ± 0.026,1.25 ± 0.056,1.37 ± 0.087,1.53 ± 0.12
UniProt O14936 and related entries,0.993 ± 0.022,1.02 ± 0.017,0.985 ± 0.013,0.9876 ± 0.0029,0.985 ± 0.015,0.98 ± 0.023
UniProt O00330 and related entries,0.958 ± 0.19,0.941 ± 0.15,0.877 ± 0.19,0.916 ± 0.25,0.867 ± 0.14,0.916 ± 0.22
NUDT21 (UniProt O43809),1.03 ± 0.032,1.03 ± 0.018,1.08 ± 0.054,1.148 ± 0.0083,1.205 ± 0.0067,1.29 ± 0.046
UniProt O00743 and related entries,0.9646 ± 0.0067,0.868 ± 0.12,0.899 ± 0.062,0.948 ± 0.014,0.966 ± 0.045,0.902 ± 0.12
HTATSF1 (UniProt O43719),1.03 ± 0.026,1.06 ± 0.061,1.02 ± 0.023,1.08 ± 0.022,1.026 ± 0.0044,1.068 ± 0.0061
UniProt O43172 and related entries,0.9909 ± 0.0052,0.979 ± 0.035,1.01 ± 0.012,1.06 ± 0.033,1.11 ± 0.031,1.15 ± 0.048
M0R0F0 and related entries (UniProt P46782),0.952 ± 0.035,0.917 ± 0.048,0.91 ± 0.13,0.925 ± 0.058,0.893 ± 0.088,0.928 ± 0.11
PRPF3 (UniProt O43395),0.996 ± 0.02,1 ± 0.032,1.03 ± 0.014,1.07 ± 0.039,1.1 ± 0.057,1.15 ± 0.062

Target,NP40-soluble protein abundance (concentration: 1mM),NP40-soluble protein abundance (concentration: 2mM),NP40-soluble protein abundance (concentration: 4mM),NP40-soluble protein abundance (concentration: 6mM),NP40-soluble protein abundance (concentration: 8mM),NP40-soluble protein abundance (concentration: 10mM)
UniProt O43566 and related entries,1.03 ± 0.055,1.041 ± 0.0074,1.02 ± 0.054,1.03 ± 0.019,1.04 ± 0.049,1.02 ± 0.028
COPE (UniProt O14579),1.05 ± 0.061,1.05 ± 0.068,1.06 ± 0.019,1.03 ± 0.021,1.06 ± 0.021,1.08 ± 0.063
DCTN6 (UniProt O00399),0.973 ± 0.096,0.998 ± 0.038,0.969 ± 0.1,0.978 ± 0.088,0.97 ± 0.1,0.98 ± 0.068
UniProt O43159,1.02 ± 0.018,1.048 ± 0.0069,1.04 ± 0.019,1.02 ± 0.013,1.04 ± 0.052,1.07 ± 0.06
POLR3A (UniProt O14802),0.957 ± 0.047,0.9 ± 0.14,0.963 ± 0.055,0.915 ± 0.066,0.949 ± 0.068,0.939 ± 0.11
KPNA4 (UniProt O00629),1.07 ± 0.029,1.074 ± 0.0097,1.07 ± 0.016,1.03 ± 0.047,1.05 ± 0.051,1.05 ± 0.037
K7EKG9 and related entries (UniProt Q14CW9),1.03 ± 0.038,1.02 ± 0.059,0.998 ± 0.031,1.01 ± 0.024,1.01 ± 0.037,0.994 ± 0.047
SLC35A4 (UniProt L0R6Q1),0.926 ± 0.013,0.981 ± 0.037,0.909 ± 0.048,0.992 ± 0.045,0.918 ± 0.033,0.908 ± 0.042
M0R0P7 and related entries (UniProt Q02543),0.981 ± 0.063,0.927 ± 0.11,0.966 ± 0.098,0.911 ± 0.057,0.864 ± 0.071,0.955 ± 0.13
UniProt O43684 and related entries,1.01 ± 0.021,0.966 ± 0.041,1.05 ± 0.045,1.11 ± 0.029,1.16 ± 0.044,1.15 ± 0.058
MAFG (UniProt O15525),0.96 ± 0.048,0.972 ± 0.037,0.95 ± 0.018,1.01 ± 0.078,0.99 ± 0.03,1 ± 0.025
UniProt O15446 and related entries,1.03 ± 0.018,1.12 ± 0.1,1.11 ± 0.03,1.12 ± 0.038,1.14 ± 0.055,1.17 ± 0.045
K7EPJ5 and related entries (UniProt O60291),0.971 ± 0.051,0.984 ± 0.038,0.968 ± 0.037,1.01 ± 0.038,1.01 ± 0.044,0.993 ± 0.029
SCAMP2 (UniProt O15127),1 ± 0.059,1 ± 0.1,0.987 ± 0.057,1.02 ± 0.02,0.982 ± 0.069,1 ± 0.036
RNF13 (UniProt O43567),1.01 ± 0.043,1.01 ± 0.054,0.983 ± 0.011,0.963 ± 0.025,0.964 ± 0.031,0.943 ± 0.046
PIK3R2 (UniProt O00459),1 ± 0.04,1.01 ± 0.045,1.01 ± 0.019,0.968 ± 0.058,0.957 ± 0.057,0.937 ± 0.041
K7EMK7 and related entries (UniProt Q04725),1 ± 0.022,1.0107 ± 0.0009,1 ± 0.015,1 ± 0.014,0.997 ± 0.015,1.011 ± 0.0099
M0R0Z3 and related entries (UniProt P35269),1.03 ± 0.028,1.11 ± 0.048,1.04 ± 0.041,1.06 ± 0.018,1.02 ± 0.017,1.09 ± 0.06
UniProt O00422 and related entries,1.02 ± 0.099,1 ± 0.12,0.981 ± 0.12,0.998 ± 0.12,0.962 ± 0.068,1.12 ± 0.21
KPNA3 (UniProt O00505),1.04 ± 0.014,1.03 ± 0.025,1.02 ± 0.02,0.976 ± 0.013,0.988 ± 0.019,0.969 ± 0.047

# 3 records picked at random from those above, as already listed:
Target,NP40-soluble protein abundance (concentration: 1mM),NP40-soluble protein abundance (concentration: 2mM),NP40-soluble protein abundance (concentration: 4mM),NP40-soluble protein abundance (concentration: 6mM),NP40-soluble protein abundance (concentration: 8mM),NP40-soluble protein abundance (concentration: 10mM)
UniProt O43159,1.02 ± 0.018,1.048 ± 0.0069,1.04 ± 0.019,1.02 ± 0.013,1.04 ± 0.052,1.07 ± 0.06
M0R0P7 and related entries (UniProt Q02543),0.981 ± 0.063,0.927 ± 0.11,0.966 ± 0.098,0.911 ± 0.057,0.864 ± 0.071,0.955 ± 0.13
K7EPJ5 and related entries (UniProt O60291),0.971 ± 0.051,0.984 ± 0.038,0.968 ± 0.037,1.01 ± 0.038,1.01 ± 0.044,0.993 ± 0.029

# (cont.)

Target,NP40-soluble protein abundance (concentration: 1mM),NP40-soluble protein abundance (concentration: 2mM),NP40-soluble protein abundance (concentration: 4mM),NP40-soluble protein abundance (concentration: 6mM),NP40-soluble protein abundance (concentration: 8mM),NP40-soluble protein abundance (concentration: 10mM)
VWA5A (UniProt O00534),0.987 ± 0.021,0.99 ± 0.013,1.01 ± 0.029,0.9811 ± 0.0053,0.9823 ± 0.0079,0.999 ± 0.03
UniProt O14818 and related entries,0.909 ± 0.032,0.88 ± 0.048,0.876 ± 0.064,0.928 ± 0.037,0.913 ± 0.073,0.936 ± 0.11
K7EQV2 and related entries (UniProt O95707),0.957 ± 0.023,0.905 ± 0.055,0.978 ± 0.095,0.984 ± 0.042,1.04 ± 0.069,0.995 ± 0.096
M0QYA8 and related entries (UniProt Q8IV63),1.06 ± 0.016,1.09 ± 0.024,1.13 ± 0.017,1.18 ± 0.043,1.23 ± 0.07,1.25 ± 0.075
UniProt O43156,0.989 ± 0.038,0.956 ± 0.076,0.95 ± 0.027,0.928 ± 0.014,0.9224 ± 0.0023,0.909 ± 0.02
XPO1 (UniProt O14980),0.966 ± 0.036,0.935 ± 0.01,0.946 ± 0.014,0.937 ± 0.05,0.908 ± 0.063,0.901 ± 0.051
EIF3F (UniProt O00303),1.01 ± 0.018,1.01 ± 0.048,1.04 ± 0.058,1.11 ± 0.043,1.15 ± 0.049,1.2 ± 0.079
MED7 (UniProt O43513),1.03 ± 0.034,1.02 ± 0.036,1.01 ± 0.033,1 ± 0.039,1.01 ± 0.017,1 ± 0.036
M0QX46 and related entries (UniProt Q6UUV9),1.01 ± 0.015,1.06 ± 0.099,1.04 ± 0.019,1.04 ± 0.038,1.02 ± 0.057,1.05 ± 0.06
UniProt O43488 and related entries,1.03 ± 0.036,0.993 ± 0.034,1.04 ± 0.068,1.03 ± 0.054,1.06 ± 0.041,1.02 ± 0.044
UniProt O15042-2|O15042,1.1 ± 0.054,1.16 ± 0.082,1.16 ± 0.07,1.22 ± 0.11,1.2 ± 0.11,1.29 ± 0.14
K7EJL1 and related entries (UniProt Q9BXS5),0.937 ± 0.026,0.854 ± 0.051,0.905 ± 0.015,0.979 ± 0.079,0.996 ± 0.027,0.938 ± 0.043
M0QYT9 and related entries (UniProt Q14653),0.988 ± 0.049,0.972 ± 0.016,0.997 ± 0.02,1.01 ± 0.057,1.04 ± 0.055,0.985 ± 0.035
ARPC5 (UniProt O15511),1.05 ± 0.043,1.11 ± 0.12,1.02 ± 0.052,1.08 ± 0.013,1.01 ± 0.028,1.054 ± 0.01
NDUFA2 (UniProt O43678),0.926 ± 0.014,0.948 ± 0.033,0.933 ± 0.036,0.906 ± 0.033,0.903 ± 0.026,0.87 ± 0.031
UniProt O14974 and related entries,1.04 ± 0.023,1.11 ± 0.07,1.06 ± 0.019,1.06 ± 0.062,1.03 ± 0.028,1.07 ± 0.033
UniProt O00154-4|O00154-7|K7EKP8,1.01 ± 0.016,0.99 ± 0.016,1.04 ± 0.017,1.06 ± 0.052,1.06 ± 0.041,1.08 ± 0.025
K7EMM8 and related entries (UniProt Q49A26),1.07 ± 0.062,1.14 ± 0.1,1.16 ± 0.14,1.25 ± 0.17,1.31 ± 0.2,1.47 ± 0.3
UniProt O43617 and related entries,0.906 ± 0.038,0.87 ± 0.045,0.93 ± 0.012,0.894 ± 0.041,0.921 ± 0.046,0.854 ± 0.078
PSMD3 (UniProt O43242),0.909 ± 0.031,0.865 ± 0.055,0.885 ± 0.091,0.906 ± 0.087,0.933 ± 0.11,0.915 ± 0.14

# Reference: the supplement of paper PMC6411743
